Measurements reported in PubChem BioAssay AID504784 (Drosophila RNAi Screening Center, 2011)

Aim: 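Search for regulators of lipid droplet storage in oleate-fed fly cells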 (primary screen)
Cells: Drosophila Kc167 embryonic cells
Reagent: long dsRNA against Drosophila genes, about 250 ng dsRNA per well
Time to read-out: 4 days
Conditions: cells fed 400 µM oleic acid bound to BSA
Measurement: 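Microscope images give a droplet-to-nucleus area ratio, taken as log and converted to a screen-wide B-score; higher values mean greater lipid storage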
Direction: droplet/nuclear area B-score: higher = more stored lipid (overstorage)
The deposit covers about 17,000 reagents; this is a random part of those with a known target gene and a result. 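Each column is one replicate's B-score; the combined score over replicates was not deposited, so single values may mislead.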 A plus sign joins genes that one reagent is predicted to hit. Not all columns of the deposit are shown. Reagent sequences are not shown.

{"gene": "CG2617 (GeneID 35331)", "DRSC id": "DRSC02712", "droplet/nuclear area B-score, replicate 1": 1.58}
{"gene": "Acyp (GeneID 34807)", "DRSC id": "DRSC01861", "droplet/nuclear area B-score, replicate 1": 2.84}
{"gene": "Jon66Cii (GeneID 38953)", "DRSC id": "DRSC10778", "droplet/nuclear area B-score, replicate 1": -0.24}
{"gene": "CG15452 (GeneID 33061)", "DRSC id": "DRSC20523", "droplet/nuclear area B-score, replicate 1": -0.525}
{"gene": "TP53INP (GeneID 38543)", "DRSC id": "DRSC08178", "droplet/nuclear area B-score, replicate 1": -0.888}
{"gene": "TP53INP (GeneID 38543)", "DRSC id": "DRSC22552", "droplet/nuclear area B-score, replicate 1": 0.00952}
{"gene": "CG1764 (GeneID 32281)", "DRSC id": "DRSC19779", "droplet/nuclear area B-score, replicate 1": 0.852}
{"gene": "CG17028 (GeneID 39741)", "DRSC id": "DRSC10239", "droplet/nuclear area B-score, replicate 1": 0.175}
{"gene": "spri (GeneID 31987)", "DRSC id": "DRSC17846", "droplet/nuclear area B-score, replicate 1": -0.0467}
{"gene": "spri (GeneID 31987)", "DRSC id": "DRSC17984", "droplet/nuclear area B-score, replicate 1": 0.645}
{"gene": "spri (GeneID 31987)", "DRSC id": "DRSC17985", "droplet/nuclear area B-score, replicate 1": 1.09}
{"gene": "spri (GeneID 31987)", "DRSC id": "DRSC17986", "droplet/nuclear area B-score, replicate 1": -0.084}
{"gene": "spri (GeneID 31987)", "DRSC id": "DRSC17988", "droplet/nuclear area B-score, replicate 1": -1.13}
{"gene": "spri (GeneID 31987)", "DRSC id": "DRSC17989", "droplet/nuclear area B-score, replicate 1": -0.172}
{"gene": "spri (GeneID 31987)", "DRSC id": "DRSC22927", "droplet/nuclear area B-score, replicate 1": 0.263}
{"gene": "CG14830 (GeneID 38800)", "DRSC id": "DRSC08876", "droplet/nuclear area B-score, replicate 1": -0.165}
{"gene": "CG14830 (GeneID 38800)", "DRSC id": "DRSC10200", "droplet/nuclear area B-score, replicate 1": 0.814}
{"gene": "CG46441 (GeneID 42423)", "DRSC id": "DRSC15561", "droplet/nuclear area B-score, replicate 1": 0.824}
{"gene": "CG12017 (GeneID 38404)", "DRSC id": "DRSC08225", "droplet/nuclear area B-score, replicate 1": 1.54}
{"gene": "Gr58b (GeneID 37502)", "DRSC id": "DRSC04140", "droplet/nuclear area B-score, replicate 1": 1.95}
{"gene": "CG16995 (GeneID 33413)", "DRSC id": "DRSC00480", "droplet/nuclear area B-score, replicate 1": -1.27}
{"gene": "CG8860 (GeneID 36310)", "DRSC id": "DRSC07291", "droplet/nuclear area B-score, replicate 1": 2}
{"gene": "tbrd-2 (GeneID 37207)", "DRSC id": "DRSC07020", "droplet/nuclear area B-score, replicate 1": -1.19}
{"gene": "CG4546 (GeneID 41922)", "DRSC id": "DRSC15593", "droplet/nuclear area B-score, replicate 1": -2.31}
{"gene": "CG33695 + cana", "DRSC id": "DRSC01163", "droplet/nuclear area B-score, replicate 1": 2.55}
{"gene": "CG33695 + cana", "DRSC id": "DRSC03503", "droplet/nuclear area B-score, replicate 1": -0.067}
{"gene": "CG13917 (GeneID 38186)", "DRSC id": "DRSC08386", "droplet/nuclear area B-score, replicate 1": -0.797}

Reprinted from above, 3 entries:
{"gene": "CG4546 (GeneID 41922)", "DRSC id": "DRSC15593", "droplet/nuclear area B-score, replicate 1": -2.31}
{"gene": "CG33695 + cana", "DRSC id": "DRSC01163", "droplet/nuclear area B-score, replicate 1": 2.55}
{"gene": "CG33695 + cana", "DRSC id": "DRSC03503", "droplet/nuclear area B-score, replicate 1": -0.067}
